We go through 1 substance from paper PMC6436350.

Sequences of proteins named here, by UniProt entry; tags and fusion partners are left off.
UniProt Q181G7: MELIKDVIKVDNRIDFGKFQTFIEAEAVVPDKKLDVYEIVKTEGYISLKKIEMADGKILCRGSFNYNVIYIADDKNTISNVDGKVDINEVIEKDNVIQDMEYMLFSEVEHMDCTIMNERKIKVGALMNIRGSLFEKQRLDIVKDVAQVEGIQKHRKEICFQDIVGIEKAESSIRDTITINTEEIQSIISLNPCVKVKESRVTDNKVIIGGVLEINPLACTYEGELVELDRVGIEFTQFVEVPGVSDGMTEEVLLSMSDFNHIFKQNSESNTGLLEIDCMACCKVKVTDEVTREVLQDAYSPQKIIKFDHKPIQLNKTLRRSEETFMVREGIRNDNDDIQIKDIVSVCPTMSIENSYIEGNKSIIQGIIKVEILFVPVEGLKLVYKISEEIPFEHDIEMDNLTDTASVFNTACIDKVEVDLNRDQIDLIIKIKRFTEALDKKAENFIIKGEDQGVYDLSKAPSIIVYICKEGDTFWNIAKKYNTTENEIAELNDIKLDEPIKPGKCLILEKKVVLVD
UniProt Q182W3: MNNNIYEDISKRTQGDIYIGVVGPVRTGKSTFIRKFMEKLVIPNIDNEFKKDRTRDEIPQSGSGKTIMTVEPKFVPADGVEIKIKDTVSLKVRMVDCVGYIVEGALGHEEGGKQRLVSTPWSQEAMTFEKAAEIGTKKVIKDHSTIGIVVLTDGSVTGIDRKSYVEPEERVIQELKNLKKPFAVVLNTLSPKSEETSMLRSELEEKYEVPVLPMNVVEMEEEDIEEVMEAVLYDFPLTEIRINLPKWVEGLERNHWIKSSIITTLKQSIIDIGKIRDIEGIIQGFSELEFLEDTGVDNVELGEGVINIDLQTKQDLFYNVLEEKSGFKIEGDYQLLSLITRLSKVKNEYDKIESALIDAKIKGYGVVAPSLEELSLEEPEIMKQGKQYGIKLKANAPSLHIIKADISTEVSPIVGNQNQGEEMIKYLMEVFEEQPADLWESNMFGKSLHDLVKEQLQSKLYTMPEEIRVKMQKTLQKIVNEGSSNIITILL

Results are given in words; binding and its absence hold for the method and conditions named. Binding seen in cells or lysates may run through a third protein. Some entries that bind do so weakly or less than the wild type.

The test concerns the target FLAG-tagged wild-type SipL (Clostridioides difficile) (UniProt Q181G7). The test is described as follows: co-IP; FLAG-tagged SipL variants immunoprecipitated from cleared lysates of C. difficile sporulating for 24 h with anti-FLAG magnetic beads (Dynabead protein G), 2 h at room temperature; 50 mM Tris pH 7.5, 150 mM NaCl; eluted with FLAG peptide; SpoIVA detected by Western blot. On the technique in general: A western blot detects proteins with antibodies after separation by electrophoresis.

On to “C. difficile SpoIVA (from UniProt Q182W3 1-491)”, for which the binding entry is listed as “binds”.
